One sequence from patent US20160186164 can be followed below.

For some assays here: Weaker means in comparison with the reference protein, sequence or condition of that experiment.

Data set [1] concerns p50-T4 DNA ligase fusion (4-2-5-8) (Homo sapiens / Enterobacteria phage T4). Briefly: activity assay. Particulars: blunt-end ligation at 75 C, agarose gel; purified recombinant protein.
In data set [2] the target is p50-Tth DNA ligase fusion (EE0217, 4-2-5-3) (Homo sapiens / Thermus thermophilus) (UniProt P26996). Briefly: activity assay. As to conditions: blunt-end ligation at 75 C, agarose gel; concatamers; purified recombinant protein.

For “AATTCTCTTTAAATAAACCCAAGGTCTCAGATTTCATGCAGATTGTGTC (double strand) [EE0139/EE0140 49-bp blunt duplex]”, the results for the “activity on this sequence” value in data set [1] and in data set [2] were “less active” and “active”, respectively.
